Measurements published in PubChem BioAssay AID2685 (National Center for Advancing Translational Sciences (NCATS), 2010).
Some of the results follow. Shown are side measurements of this screen, not its main read-out; they come without a call. The list favours compounds with an active or inconclusive main result. Potencies come from curve fits of mixed quality, noted in brackets.

Assay: qHTS Assay for Lipid Storage Modulators in Drosophila S3 Cells;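 on cell number change: cells counted by Cell Tracker Red CMTPX staining in the red channel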
Details: BODIPY lipid droplet fluorescence, 18-24 h; for cell number change: measured here: cell count max response, cells fed with added oleic acid
Procedure, shortened: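 Drosophila S3 cells got compounds at several concentrations plus oleic acid (400 uM solution). Laser-scanning cytometry with 488 nm excitation read lipid droplets at 500-530 nm and cells at 575-640 nm. Percent activity was relative to 20 uM Triacsin C.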

[1] = measured here: cell number channel AC50, cells fed with added oleic acid
[2] = measured here: lipid fluorescence (Fed channel) AC50, cells fed with added oleic acid

SMILES | cell number change [%] | AC50 [1] | AC50 [2]
Cc1cccc(N/N=C(\C=N\N)C(=O)c2ccc(Br)cc2)c1 | -8.87 | 3.26 µM [rising, partial curve, poor fit] | 
COc1ccc(NC(=O)C23CC4CC(C2)CC(c2ccccc2)(C4)C3)c(OC)c1 | 9.71 |  | 0.82 µM [rising, full curve, poor fit]
CCN(CC)CCOc1ccccc1C(C)=O |  |  | 0.461 µM [falling, partial curve, poor fit]
Cc1cc2c(=O)n(NC(N)=O)c(C)nc2s1 | 5.46 |  | 
Cn1c(=O)c2c(nc(Br)n2Cc2ccc3ccccc3c2)n(C)c1=O |  |  | 16.4 µM [rising, partial curve]
COc1ccccc1NC(=O)Nc1nnc(C(C)c2ccccc2)s1 (stereo not drawn) | -19.4 |  | 
CC(=O)c1cccc(NC(=S)NC(=O)c2ccccc2)c1 | 24.9 |  | 9.2 µM [rising, partial curve]
CCC(C)NC(=O)COC(=O)c1oc2ccccc2c1CSc1ccc(Cl)cc1 (stereo not drawn) | 3.09 |  | 6.51 µM [rising, single point]
CC(C)Oc1ccc(/C=N/NC(=O)c2ccc(N(Cc3ccccc3)S(C)(=O)=O)cc2)cc1 | 30.7 | 29.1 µM [rising, single point] | 0.0517 µM [falling, full curve, poor fit]
CCOc1ccc(N2C(=O)c3cccnc3C2Nc2ccc(OC)cc2)cc1 (stereo not drawn) | -13.1 |  | 
CCCn1c(SCC(=O)Nc2ccccc2C(=O)NC2CC2)n[nH]c1=O | -16 |  | 5.8 µM [falling, single point]
COc1ccccc1CNn1c(-c2cccc(C)c2)nc2ccccc2c1=O |  |  | 0.58 µM [rising, single point]
Cc1nc(N2CCN(C(c3ccccc3)c3ccccc3)CC2)[nH]c(=O)c1C | 4.01 |  | 
CCOc1ccc(-c2nc(S(=O)(=O)c3ccccc3)c(NCc3cccnc3)o2)cc1 |  |  | 0.58 µM [rising, full curve]
CN(CCOc1ccc(Br)cc1)C(=O)CNC(=O)c1ccc2ccccc2c1 | 11.2 |  | 0.00517 µM [rising, full curve, poor fit]
Cc1ccc(-n2c(C)nnc2SCC(=O)N(C)C2CCS(=O)(=O)C2)cc1 (stereo not drawn) | 1.47 |  | 18.4 µM [falling, partial curve, poor fit]
COc1ccc(C(=O)/C(=C/N(C)C)S(=O)(=O)c2ccccc2)cc1 |  | 0.103 µM [falling, full curve, poor fit] | 0.13 µM [falling, full curve, poor fit]
Cc1ccc(S(=O)(=O)N/N=C\c2ccc3c(c2)OCO3)c(C)c1 | 22.3 |  | 29.1 µM [rising, single point]
O=C(CN(Cc1ccco1)C(=O)CNS(=O)(=O)c1ccccc1)NCc1ccc(F)cc1 | -9.07 |  | 0.92 µM [falling, partial curve]
COc1ccccc1N1CCN(C(=O)C2CCN(S(=O)(=O)c3ccc4c(c3)CC(C)N4C(C)=O)CC2)CC1 (stereo not drawn) |  | 0.146 µM [falling, full curve, poor fit] | 

SMILES | cell number change [%] | AC50 [1] | AC50 [2]
Cc1ccc2cc3cc(C(=O)N4CCCCCC4)oc3nc2c1 |  | 3.26 µM [rising, partial curve] | 
Cc1ccc(C)c(-c2csc(NC(=O)C3=COCCO3)n2)c1 |  | 6.51 µM [rising, single point] | 
Clc1nssc1=Nc1ccccc1 | -76 | 29.1 µM [falling, single point] | 29.1 µM [falling, single point]
Cc1ccccc1NC(=O)Cc1nc(COC(=O)c2ccc([N+](=O)[O-])cc2)cs1 | -12.5 |  | 
CC1(C(=O)NNC(=O)c2ccc(=O)oc2)CC1Br (stereo not drawn) | 31.6 |  | 
CC(C)Oc1ccc(NC(=O)C2CCCNC2=O)cc1 (stereo not drawn) | -9.75 |  | 
O=C(Oc1ccc2ccccc2c1Cl)N1CCCC1 | -24.7 |  | 10.3 µM [rising, partial curve, poor fit]
CCn1c(SCC(=O)c2c(N)n(C3CC3)c(=O)[nH]c2=O)nc2cc(S(N)(=O)=O)ccc21 | -43.6 | 6.51 µM [falling, full curve] | 5.8 µM [falling, full curve]
COC(=O)/C(C(C)=O)=C(/C=C/C=C/N(C)C)N(C)C | -31.9 | 18.4 µM [falling, single point] | 29.1 µM [falling, single point]
CCOc1ccc(OCCNC(=O)c2oc3ccccc3c2COC)cc1 | 1.94 |  | 25.9 µM [falling, single point]
CCn1nnnc1SCC(=O)Nc1nc(-c2cccs2)cs1 | -33 | 29.1 µM [falling, single point] | 29.1 µM [falling, single point]
Cc1ccc(OCCOC(=O)c2sc(=S)n(C)c2C)cc1 | 4.94 |  | 29.1 µM [falling, single point]
COC(=O)c1cc(Br)ccc1OC(=O)c1cccnc1 | 2.35 |  | 0.00461 µM [falling, full curve, poor fit]
O=C(NCc1cccnc1)C1CCC(CNS(=O)(=O)c2ccc(Cl)cc2)CC1 (stereo not drawn) |  | 2.31 µM [rising, single point] | 4.11 µM [rising, single point]
COc1ccc(/C=N/n2c(C)nc3ccccc3c2=O)cc1OC | 44.7 | 11.6 µM [rising, partial curve, poor fit] | 
CSc1nc2ccc3nc(NC(=O)c4ccccc4)sc3c2s1 | -31 | 20.6 µM [falling, single point] | 13 µM [falling, partial curve]
CCOc1ccc(-c2nc(-c3cccnc3)no2)cc1OCC | -4.92 |  | 20.6 µM [rising, single point]
O=C(/C=C/c1ccccc1Cl)N1CCN(c2ncccn2)CC1 | 40.8 | 0.651 µM [rising, full curve] | 2.06 µM [rising, partial curve]
CCOC(=O)c1c(O)c2c(n(Cc3ccco3)c1=O)CCCC2 | -0.195 |  | 0.146 µM [falling, full curve]
CC12CCC(C/C1=N/O)C2(C)C (stereo not drawn) | -51.6 | 3.26 µM [falling, single point] | 0.00411 µM [falling, full curve, poor fit]

Three compounds from above, sorted by length of the SMILES, ascending:
SMILES | cell number change [%] | AC50 [1] | AC50 [2]
O=C(Oc1ccc2ccccc2c1Cl)N1CCCC1 | -24.7 |  | 10.3 µM [rising, partial curve, poor fit]
COc1ccccc1NC(=O)Nc1nnc(C(C)c2ccccc2)s1 (stereo not drawn) | -19.4 |  | 
CC(C)Oc1ccc(/C=N/NC(=O)c2ccc(N(Cc3ccccc3)S(C)(=O)=O)cc2)cc1 | 30.7 | 29.1 µM [rising, single point] | 0.0517 µM [falling, full curve, poor fit]

More structures

SMILES | cell number change [%] | AC50 [1] | AC50 [2]
CC(C)C[C@H](NC(=O)C1CCN(S(=O)(=O)c2ccccc2)CC1)C(=O)NCc1ccccn1 |  |  | 5.17 µM [falling, single point]
CN(C)Cc1c(O)ccc2cc(-c3nc4ccccc4n3C)c(=O)oc12 | -35.7 | 32.6 µM [falling, single point] | 0.651 µM [falling, partial curve, poor fit]
CCc1nc(NCCN2CCOCC2)c(C#N)c2c1CCCC2 | -33.5 | 0.651 µM [falling, full curve] | 0.13 µM [falling, full curve, poor fit]
CCOCCCNC(=O)N[C@@H](C)C(=O)OC | -0.624 |  | 
CC(C)c1ccc([N+](=O)[O-])cc1S(=O)(=O)N1CCN(C)CC1 | 42.2 | 29.1 µM [rising, single point] | 
C=CCc1cccc2cc(C(=O)N3CCN(C(=O)OCC)CC3)c(=O)oc12 |  | 2.59 µM [rising, partial curve] | 0.58 µM [rising, single point]
COc1ccc(C(=O)COC(=O)/C=C/c2ccccc2)cc1 | -0.232 |  | 0.562 µM [rising, full curve, poor fit]
O=C(NCCNC(=O)c1ccccc1F)c1ccccn1 | 2.63 |  | 6.31 µM [rising, single point]
CCC(C)NC(=O)CSc1nnc(-c2cc(-c3cccs3)nc3ccccc23)o1 (stereo not drawn) | 104 | 0.92 µM [rising, full curve] | 0.259 µM [rising, partial curve]
CC1(C)NC(=O)N(CC(O)CN2CCCCC2)C1=O (stereo not drawn) | -23.2 | 0.0058 µM [falling, full curve, poor fit] | 7.31 µM [falling, partial curve]
CCN(CC)S(=O)(=O)c1cccc(NC(=O)CSc2nnc(N)s2)c1 | 14.1 |  | 
CC(=O)c1c(C)[nH]c(C(=O)CSc2nnc(NC3CC3)s2)c1C | 73.1 | 2.06 µM [rising, partial curve, poor fit] | 
COc1ccc2[nH]c(=O)c(CN(Cc3cccs3)C(=S)Nc3ccccc3)cc2c1 | 13 |  | 3.26 µM [rising, full curve]
CN(CC(=O)Nc1ccc(F)cc1)C(=O)C1CCN(S(=O)(=O)c2ccc3c(c2)OCCO3)CC1 | 0.942 | 4.61 µM [falling, single point] | 6.51 µM [falling, single point]
COc1ccc(/C=C2/SC(=S)N(NS(=O)(=O)c3ccc(C)cc3)C2=O)cc1 | 5.71 | 0.116 µM [rising, partial curve, poor fit] | 
COc1ccccc1-n1cc(C(=O)N2CCCC(CO)(Cc3ccccc3C)C2)cn1 (stereo not drawn) | 23 |  | 13 µM [rising, partial curve, poor fit]
COc1ccc(CCC(=O)NCc2cnn(C)c2)cc1 | -1.13 |  | 0.651 µM [falling, single point]
CCOC(=O)c1c(C)[nH]c(C(=O)CN2C(=O)NC(CC)(c3ccccc3)C2=O)c1C (stereo not drawn) | -15.9 |  | 0.651 µM [falling, partial curve, poor fit]
O=C(Nc1cccnc1)C1CCCN(c2ncnc3c2nc2n3CCCCC2)C1 (stereo not drawn) |  |  | 0.58 µM [rising, single point]

2 neighbouring records from above, quoted:
SMILES | cell number change [%] | AC50 [1] | AC50 [2]
CCN(CC)S(=O)(=O)c1cccc(NC(=O)CSc2nnc(N)s2)c1 | 14.1 |  | 
CC(=O)c1c(C)[nH]c(C(=O)CSc2nnc(NC3CC3)s2)c1C | 73.1 | 2.06 µM [rising, partial curve, poor fit] | 
